Laboratory results from PMC3237458, “PEGylation Potentiates the Effectiveness of an Antagonistic Peptide That Targets the EphB4 Receptor with Nanomolar Affinity” (PLoS ONE, 2011).
No constants are given. Whether binding was seen depends on the method and setting. Some entries that bind do so weakly or less than the wild type. Sequences can lack the tags named with a protein.

The chains behind the UniProt entries cited, without tags or fusion partners. Residues count along the entry.
UniProt P52800, residues 29-232: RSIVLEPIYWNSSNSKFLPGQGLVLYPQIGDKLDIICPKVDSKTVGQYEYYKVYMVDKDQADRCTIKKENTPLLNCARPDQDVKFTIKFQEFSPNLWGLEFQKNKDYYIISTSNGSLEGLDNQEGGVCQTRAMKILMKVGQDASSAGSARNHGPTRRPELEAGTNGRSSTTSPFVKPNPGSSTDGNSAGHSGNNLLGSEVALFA

Molecular target: T1, EphB4 Fc (UniProt P54761)
T1 sequence: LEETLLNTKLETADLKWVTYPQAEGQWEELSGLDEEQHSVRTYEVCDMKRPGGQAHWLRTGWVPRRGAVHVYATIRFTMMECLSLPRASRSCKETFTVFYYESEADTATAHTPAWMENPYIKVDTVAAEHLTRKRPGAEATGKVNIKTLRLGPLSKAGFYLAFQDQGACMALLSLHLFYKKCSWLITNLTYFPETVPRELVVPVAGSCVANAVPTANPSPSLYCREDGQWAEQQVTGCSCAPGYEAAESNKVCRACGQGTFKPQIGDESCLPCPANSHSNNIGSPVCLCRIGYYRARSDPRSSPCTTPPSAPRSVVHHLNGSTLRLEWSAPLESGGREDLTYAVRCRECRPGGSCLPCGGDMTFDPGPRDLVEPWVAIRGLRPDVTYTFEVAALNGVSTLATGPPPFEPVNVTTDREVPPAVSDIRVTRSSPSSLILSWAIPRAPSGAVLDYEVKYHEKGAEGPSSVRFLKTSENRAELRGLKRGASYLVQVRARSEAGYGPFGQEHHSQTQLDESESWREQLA
Test: ELISA; EphB4 Fc (1 µg/ml) on protein A-coated plates, 3 hours with 0.02 nM ephrin-B2 AP in culture medium diluted in TBST; wells with human Fc instead of EphB4 Fc subtracted as background; only the target purified

- binding: binds
Substance: mouse ephrin-B2 AP (from UniProt P52800 29-232) (ligand)
